Measured values: paper PMC7045432
These are yes or no findings as the source states them, for the method shown. Binding seen in cells or lysates may run through a third protein. Some binding calls cover weakened binding; strength is not graded here. Values belong to the binder of their own block, whether it stands above or below them.

Experiments:
[1] = target: T1, YTHDF1 (human (endogenous in A549)), Q9BYJ9; test: co-IP; endogenous co-IP from A549 cell lysates, immunoprecipitation with an antibody against either partner, western blot; for YTHDF1/2 with YTHDF3 also in cells transfected with shALKBH5 or ALKBH5 (interaction not affected); conditions: remark: other sources report otherwise
T1 chain: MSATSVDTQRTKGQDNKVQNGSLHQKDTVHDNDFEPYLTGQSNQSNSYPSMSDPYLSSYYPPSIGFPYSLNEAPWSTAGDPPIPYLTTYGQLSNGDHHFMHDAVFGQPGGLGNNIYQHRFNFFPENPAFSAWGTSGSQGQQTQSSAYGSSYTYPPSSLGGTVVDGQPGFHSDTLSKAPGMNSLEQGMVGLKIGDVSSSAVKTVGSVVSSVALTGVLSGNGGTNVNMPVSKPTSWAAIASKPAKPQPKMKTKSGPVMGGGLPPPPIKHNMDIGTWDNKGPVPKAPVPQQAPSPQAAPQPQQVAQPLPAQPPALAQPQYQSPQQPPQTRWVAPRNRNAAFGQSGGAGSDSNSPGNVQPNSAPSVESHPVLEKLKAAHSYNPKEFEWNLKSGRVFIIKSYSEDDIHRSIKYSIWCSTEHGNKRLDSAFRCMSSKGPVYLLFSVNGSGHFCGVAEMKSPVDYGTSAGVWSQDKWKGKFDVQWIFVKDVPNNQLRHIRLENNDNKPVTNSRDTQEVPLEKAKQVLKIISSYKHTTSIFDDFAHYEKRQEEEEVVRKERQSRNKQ

[2] = target: T1, YTHDF1 (human (endogenous in A549)), …; test: co-IP; lysates of A549 and H1299 cells transfected with YTHDF1 or YTHDF2; immunoprecipitation with YTHDF2 or YTHDF1 antibody, respectively; blot for YTHDF3; conditions: remark: other sources report otherwise
[3] = target: T2, YTHDF3 (human (endogenous in A549)), Q7Z739; test: co-IP; endogenous co-IP from A549 cell lysates, immunoprecipitation with an antibody against either partner, western blot; for YTHDF1/2 with YTHDF3 also in cells transfected with shALKBH5 or ALKBH5 (interaction not affected); conditions: remark: other sources report otherwise
T2 chain: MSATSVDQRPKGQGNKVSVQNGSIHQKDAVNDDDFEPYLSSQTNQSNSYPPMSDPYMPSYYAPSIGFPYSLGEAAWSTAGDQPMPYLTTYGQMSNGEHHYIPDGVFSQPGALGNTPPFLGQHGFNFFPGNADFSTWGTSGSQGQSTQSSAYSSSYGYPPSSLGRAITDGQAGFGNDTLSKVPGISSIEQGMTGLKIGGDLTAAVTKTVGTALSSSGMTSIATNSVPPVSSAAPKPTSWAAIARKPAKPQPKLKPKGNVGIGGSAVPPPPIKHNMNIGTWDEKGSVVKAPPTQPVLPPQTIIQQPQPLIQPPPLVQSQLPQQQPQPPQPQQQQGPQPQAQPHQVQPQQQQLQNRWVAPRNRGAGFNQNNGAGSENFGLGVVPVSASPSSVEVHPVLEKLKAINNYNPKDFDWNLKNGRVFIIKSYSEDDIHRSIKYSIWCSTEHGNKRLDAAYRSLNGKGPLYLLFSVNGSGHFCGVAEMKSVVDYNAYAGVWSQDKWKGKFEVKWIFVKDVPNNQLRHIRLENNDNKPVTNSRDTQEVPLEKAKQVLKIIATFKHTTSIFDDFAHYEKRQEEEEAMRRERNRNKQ

[4] = target: T3, YTHDF3 (human (endogenous in A549)) (UniProt Q7Z739); test: co-IP; lysates of A549 and H1299 cells transfected with YTHDF1 or YTHDF2; immunoprecipitation with YTHDF2 or YTHDF1 antibody, respectively; blot for YTHDF3
T3 sequence: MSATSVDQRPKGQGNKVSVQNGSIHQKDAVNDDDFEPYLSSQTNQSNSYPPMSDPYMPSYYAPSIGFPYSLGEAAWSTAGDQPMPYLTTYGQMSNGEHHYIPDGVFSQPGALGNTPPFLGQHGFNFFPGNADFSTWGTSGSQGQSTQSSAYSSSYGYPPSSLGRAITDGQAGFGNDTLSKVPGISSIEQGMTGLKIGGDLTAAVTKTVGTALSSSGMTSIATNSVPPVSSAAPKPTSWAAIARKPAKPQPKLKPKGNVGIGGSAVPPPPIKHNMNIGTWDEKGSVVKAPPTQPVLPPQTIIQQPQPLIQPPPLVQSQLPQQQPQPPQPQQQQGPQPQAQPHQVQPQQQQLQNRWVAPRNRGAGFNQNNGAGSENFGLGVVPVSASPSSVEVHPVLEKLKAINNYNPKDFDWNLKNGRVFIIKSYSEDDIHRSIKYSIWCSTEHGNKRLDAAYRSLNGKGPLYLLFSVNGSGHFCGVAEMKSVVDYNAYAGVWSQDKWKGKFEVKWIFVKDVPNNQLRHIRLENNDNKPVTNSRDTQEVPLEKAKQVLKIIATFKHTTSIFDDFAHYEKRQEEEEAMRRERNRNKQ

binding [1]: binds | binding [2]: binds
B1: YTHDF3, Q7Z739 1-585 (protein)
chain: MSATSVDQRPKGQGNKVSVQNGSIHQKDAVNDDDFEPYLSSQTNQSNSYPPMSDPYMPSYYAPSIGFPYSLGEAAWSTAGDQPMPYLTTYGQMSNGEHHYIPDGVFSQPGALGNTPPFLGQHGFNFFPGNADFSTWGTSGSQGQSTQSSAYSSSYGYPPSSLGRAITDGQAGFGNDTLSKVPGISSIEQGMTGLKIGGDLTAAVTKTVGTALSSSGMTSIATNSVPPVSSAAPKPTSWAAIARKPAKPQPKLKPKGNVGIGGSAVPPPPIKHNMNIGTWDEKGSVVKAPPTQPVLPPQTIIQQPQPLIQPPPLVQSQLPQQQPQPPQPQQQQGPQPQAQPHQVQPQQQQLQNRWVAPRNRGAGFNQNNGAGSENFGLGVVPVSASPSSVEVHPVLEKLKAINNYNPKDFDWNLKNGRVFIIKSYSEDDIHRSIKYSIWCSTEHGNKRLDAAYRSLNGKGPLYLLFSVNGSGHFCGVAEMKSVVDYNAYAGVWSQDKWKGKFEVKWIFVKDVPNNQLRHIRLENNDNKPVTNSRDTQEVPLEKAKQVLKIIATFKHTTSIFDDFAHYEKRQEEEEAMRRERNRNKQ

binding [3]: binds
B2: YTHDF1, Q9BYJ9 1-559 (protein)
chain: MSATSVDTQRTKGQDNKVQNGSLHQKDTVHDNDFEPYLTGQSNQSNSYPSMSDPYLSSYYPPSIGFPYSLNEAPWSTAGDPPIPYLTTYGQLSNGDHHFMHDAVFGQPGGLGNNIYQHRFNFFPENPAFSAWGTSGSQGQQTQSSAYGSSYTYPPSSLGGTVVDGQPGFHSDTLSKAPGMNSLEQGMVGLKIGDVSSSAVKTVGSVVSSVALTGVLSGNGGTNVNMPVSKPTSWAAIASKPAKPQPKMKTKSGPVMGGGLPPPPIKHNMDIGTWDNKGPVPKAPVPQQAPSPQAAPQPQQVAQPLPAQPPALAQPQYQSPQQPPQTRWVAPRNRNAAFGQSGGAGSDSNSPGNVQPNSAPSVESHPVLEKLKAAHSYNPKEFEWNLKSGRVFIIKSYSEDDIHRSIKYSIWCSTEHGNKRLDSAFRCMSSKGPVYLLFSVNGSGHFCGVAEMKSPVDYGTSAGVWSQDKWKGKFDVQWIFVKDVPNNQLRHIRLENNDNKPVTNSRDTQEVPLEKAKQVLKIISSYKHTTSIFDDFAHYEKRQEEEEVVRKERQSRNKQ

binding [4]: binds
B3: YTHDF1, overexpressed from pcDNA 3.1 (protein, UniProt Q9BYJ9 2-559)
chain: SATSVDTQRTKGQDNKVQNGSLHQKDTVHDNDFEPYLTGQSNQSNSYPSMSDPYLSSYYPPSIGFPYSLNEAPWSTAGDPPIPYLTTYGQLSNGDHHFMHDAVFGQPGGLGNNIYQHRFNFFPENPAFSAWGTSGSQGQQTQSSAYGSSYTYPPSSLGGTVVDGQPGFHSDTLSKAPGMNSLEQGMVGLKIGDVSSSAVKTVGSVVSSVALTGVLSGNGGTNVNMPVSKPTSWAAIASKPAKPQPKMKTKSGPVMGGGLPPPPIKHNMDIGTWDNKGPVPKAPVPQQAPSPQAAPQPQQVAQPLPAQPPALAQPQYQSPQQPPQTRWVAPRNRNAAFGQSGGAGSDSNSPGNVQPNSAPSVESHPVLEKLKAAHSYNPKEFEWNLKSGRVFIIKSYSEDDIHRSIKYSIWCSTEHGNKRLDSAFRCMSSKGPVYLLFSVNGSGHFCGVAEMKSPVDYGTSAGVWSQDKWKGKFDVQWIFVKDVPNNQLRHIRLENNDNKPVTNSRDTQEVPLEKAKQVLKIISSYKHTTSIFDDFAHYEKRQEEEEVVRKERQSRNKQ
